Strings that start with PEPTIDE1 are HELM notation: dots part the residues, brackets hold end groups and non-standard residues.

The nature of this data set: general procedure: Boc solid-phase peptide synthesis; Boc-Trp(For)-PAM resin; dicyclohexylcarbodiimide; activated esters or anhydrides of N-alpha-Boc amino ac. Particulars: whole synthesis, scale 0.43 meq.

PEPTIDE1{[ac].[dF].L.D.I.I.W}$$$$V2.0 returned an isolated mass of 14.8 mg.

For the origin of these results see patent EP0584290B1 (WARNER-LAMBERT COMPANY, priority 1991, dated 1992).
